± gives the standard deviation of the averaged measurements. Most entries show no effect beyond the scatter of the controls.
Columns and labels:
Test in all cases: level (log10 ratio to DMSO vehicle control); higher = higher biomarker level / cell amount than vehicle control
[1] = compound: O=C(O)C(F)(F)OC(F)(F)C(F)(F)OC(F)(F)C(F)(F)C(F)(F)C(F)(F)F [Perfluoro-3,6-dioxadecanoic acid]; conditions: 2200 nM; in DMSO
Experimental: (§1)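 BioMAP Diversity Plus panel of 12 human primary cell co-culture systems (3C, 4H, LPS, SAg, BT, BF4T, BE3C, CASM3C, HDF3CGF, KF3CT, MyoF, Mphg). Compounds were added 1 h before stimulation and left for 24 h (MyoF 48 h; BT 72 h for soluble read-outs or 6 d for IgG). Biomarkers were read by ELISA, cytotoxicity by SRB, PBMC viability and proliferation by Alamar Blue. Each well value was divided by the mean of 8 DMSO control wells on the same plate and log10 transformed; duplicate blinded samples were tested at 4 concentrations.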

[2] = compound: O=C(O)C(F)(F)C(F)(F)OC(F)(F)F [Perfluoro-3-methoxypropanoic acid]; conditions: 2200 nM; in DMSO
Experimental: as §1

[3] = compound: O=C(O)C(F)(F)C(F)(F)C(F)(F)C(F)(F)C(F)(F)C(F)(F)C(F)(F)C(F)F [9-H-Perfluorononanoic acid]; conditions: 2200 nM; in DMSO
Experimental: as §1

[4] = compound: O=C(O)C=CC(F)(C(F)(F)F)C(F)(F)F [3-(Perfluoroisopropyl)-2-propenoic acid]; conditions: in DMSO
Experimental: as §1

[5] = compound: OCCC(F)(F)C(F)(F)C(F)(F)C(F)(F)C(F)(F)C(F)(F)C(F)(F)C(F)(F)F [8:2 Fluorotelomer alcohol]; conditions: 2200 nM; in DMSO
Experimental: as §1

[6] = compound: FC(F)C(F)(F)COCC1CO1 [((2,2,3,3-Tetrafluoropropoxy)methyl)oxirane]; conditions: 2200 nM; in DMSO
Experimental: as §1

[7] = compound: C=CC(=O)OCC(F)(F)C(F)(F)C(F)(F)C(F)(F)COC(=O)C=C [1H,1H,6H,6H-Perfluorohexane-1,6-diol diacrylate]; conditions: 2200 nM; in DMSO
Experimental: as §1

[8] = compound: O=C(O)C(F)(F)OC(F)(F)C(F)(F)OC(F)(F)C(=O)O [Perfluoro-3,6-dioxaoctane-1,8-dioic acid]; conditions: 2200 nM; in DMSO
Experimental: as §1

[9] = compound: C=C(C)C(=O)OCC(F)(F)C(F)(F)C(F)(F)F [2,2,3,3,4,4,4-Heptafluorobutyl methacrylate]; conditions: 2200 nM; in DMSO
Experimental: as §1

Perfluorooctanamide = compound: NC(=O)C(F)(F)C(F)(F)C(F)(F)C(F)(F)C(F)(F)C(F)(F)C(F)(F)F [Perfluorooctanamide]; conditions: 2200 nM; in DMSO
Experimental: as §1

[10] = compound: FC(F)(F)C(F)(F)C(F)(F)C(F)(F)C(F)(F)C(F)(F)C(F)(F)CCI [1-Iodo-1H,1H,2H,2H-perfluorononane]; conditions: in DMSO
Experimental: as §1

[11] = compound: O=S(=O)(Cl)C(F)(F)C(F)(F)C(F)(F)C(F)(F)C(F)(F)C(F)(F)C(F)(F)C(F)(F)F [Perfluoro-1-octanesulfonyl chloride]; conditions: 2200 nM; in DMSO
Experimental: as §1

Perfluoropropanoic acid = compound: O=C(O)C(F)(F)C(F)(F)F [Perfluoropropanoic acid]; conditions: 2200 nM; in DMSO
Experimental: as §1

[12] = compound: O=P(O)(O)CCC(F)(F)C(F)(F)C(F)(F)C(F)(F)C(F)(F)C(F)(F)C(F)(F)C(F)(F)F [((Perfluorooctyl)ethyl)phosphonic acid]; conditions: 2200 nM; in DMSO
Experimental: as §1

Perfluorobutanoic acid = compound: O=C(O)C(F)(F)C(F)(F)C(F)(F)F [Perfluorobutanoic acid]; conditions: 2200 nM; in DMSO
Experimental: as §1

[13] = compound: OCC(F)(F)C(F)(F)C(F)(F)C(F)(F)C(F)(F)C(F)(F)C(F)(F)C(F)(F)C(F)(F)C(F)(F)C(F)(F)F [11:1 Fluorotelomer alcohol]; conditions: in DMSO
Experimental: as §1

[14] = compound: FC(F)(F)C(F)(F)C(F)(F)C(F)(F)C(F)(F)C(F)(F)C(F)(F)I [1-Iodopentadecafluoroheptane]; conditions: in DMSO
Experimental: as §1

Perfluoroundecanoic acid = compound: O=C(O)C(F)(F)C(F)(F)C(F)(F)C(F)(F)C(F)(F)C(F)(F)C(F)(F)C(F)(F)C(F)(F)C(F)(F)F [Perfluoroundecanoic acid]; conditions: in DMSO
Experimental: as §1

Test System	level (log10) [1]	level (log10) [2]	level (log10) [3]	level (log10) ([4]; 2200 nM)	level (log10) ([4]; 6700 nM)	level (log10) ([4]; 20000 nM)	level (log10) ([4]; 60000 nM)	level (log10) [5]	level (log10) [6]	level (log10) [7]	level (log10) [8]	level (log10) [9]	level (log10) (Perfluorooctanamide)	level (log10) ([10]; 740 nM)	level (log10) ([10]; 2200 nM)	level (log10) ([10]; 6700 nM)	level (log10) ([10]; 20000 nM)	level (log10) [11]	level (log10) (Perfluoropropanoic acid)	level (log10) [12]	level (log10) (Perfluorobutanoic acid)	level (log10) ([13]; 370 nM)	level (log10) ([13]; 1100 nM)	level (log10) ([13]; 3300 nM)	level (log10) ([13]; 10000 nM)	level (log10) ([14]; 740 nM)	level (log10) ([14]; 2200 nM)	level (log10) ([14]; 6700 nM)	level (log10) ([14]; 20000 nM)	level (log10) (Perfluoroundecanoic acid; 740 nM)	level (log10) (Perfluoroundecanoic acid; 2200 nM)
BE3C:PAI-I	0.0185 ± 0.019	-0.028 ± 0.0099	0.041 ± 0.055	0.0005 ± 0.018	0.0105 ± 0.00071	-0.003 ± 0.0042	0.0065 ± 0.023	-0.0195 ± 0.011	0.0035 ± 0.025	-0.036 ± 0.069	-0.017 ± 0.033	-0.0395 ± 0.046	-0.0055 ± 0.015	0.015 ± 0.051	-0.0165 ± 0.03	0.016 ± 0.0071	-0.01 ± 0.0099	0.0165 ± 0.03	-0.0175 ± 0.00071	0.013 ± 0.044	-0.0095 ± 0.021	-0.029 ± 0.065	-0.045 ± 0.057	-0.0855 ± 0.054	-0.0555 ± 0.07	-0.02 ± 0.011	-0.006 ± 0.024	-0.0185 ± 0.047	-0.0245 ± 0.037	-0.0715 ± 0.076	-0.073 ± 0.016
BE3C:SRB	0.013 ± 0.0057	0.0025 ± 0.016	-0.0015 ± 0.0021	0.0065 ± 0.026	-0.0005 ± 0.005	-0.002 ± 0.0014	0.013 ± 0.021	0.0045 ± 0.015	0.0135 ± 0.0064	-0.0005 ± 0.015	-0.0025 ± 0.0035	-0.011 ± 0.0057	0.003 ± 0.0057	-0.001 ± 0.0028	-0.006 ± 0.0042	-0.0035 ± 0.0021	0.0005 ± 0.00071	0.0115 ± 0.023	-0.0045 ± 0.00071	0.005 ± 0.0071	0.006 ± 0.021	-0.014 ± 0.0057	-0.03 ± 0.014	-0.0485 ± 0.005	-0.0235 ± 0.0064	0.002 ± 0.0028	0.004	0.0095 ± 0.00071	0.0085 ± 0.0035	0.009 ± 0.0014	0.0005 ± 0.00071
BE3C:tPA	-0.009 ± 0.045	0.0065 ± 0.059	0.0405 ± 0.023	0.0125 ± 0.073	-0.004 ± 0.045	-0.0215 ± 0.042	0.022 ± 0.0071	-0.014 ± 0.013	0.0085 ± 0.028	-0.0125 ± 0.023	-0.0165 ± 0.029	-0.0225 ± 0.019	0.018 ± 0.011	0.008 ± 0.013	0.002 ± 0.018	0.004 ± 0.035	0.011 ± 0.035	0.023 ± 0.011	0.005 ± 0.02	0.0975 ± 0.033	0.013 ± 0.016	-0.005 ± 0.0057	-0.0125 ± 0.011	-0.033 ± 0.011	-0.008 ± 0.016	-0.009 ± 0.013	-0.0045 ± 0.0064	-0.006 ± 0.0042	0.0075 ± 0.022	0.105 ± 0.025	0.136 ± 0.024
BE3C:uPA	0.004 ± 0.027	0.0005 ± 0.013	0.0025 ± 0.00071	0.005 ± 0.0071	-0.0045 ± 0.005	-0.001 ± 0.0057	0.0045 ± 0.0021	-0.007 ± 0.016	0.0025 ± 0.022	-0.001 ± 0.013	-0.0035 ± 0.023	-0.0095 ± 0.029	-0.0035 ± 0.0035	0.0005 ± 0.033	-0.014 ± 0.035	0.003 ± 0.033	-0.0125 ± 0.015	0.0015 ± 0.012	-0.0035 ± 0.046	0.0045 ± 0.016	0.0215 ± 0.018	-0.0165 ± 0.022	-0.0155 ± 0.013	-0.0405 ± 0.0078	-0.0175 ± 0.0035	0.0015 ± 0.0021	-0.005 ± 0.0099	-0.0135 ± 0.0035	-0.009 ± 0.0099	0.0015 ± 0.016	-0.006 ± 0.0014

From the supplement of paper PMC10331698
